For at least one compound, name, drawing or mass did not settle the structure.
System: PGE2
Test: Inhibition of PGE2 formation in rabbit articular chondrocytes stimulated with IL-1β (RIA)
Assay type: cell-based
Method: a) The inhibitory activity on the formation of NO measured as NO2^− (nitrite) and PGE2 was studied in vitro on culture media of rabbit articular chondrocytes stimulated with the cytokine IL-1β (1 ng/ml) for 48 hours. For the preparation of the chondrocytes, the method described by Berenbaum et al. [FEBS Letters 340, 51-55 (1994)] was followed. Briefly, fragments of cartilage removed aseptically from the articular heads of rabbit shoulder, hip and knee were finely ground and digested at 37° C. in hyaluronidase, trypsin and collagenase solutions, giving, after filtration through sterile gauze and centrifugation at 600×g and suitable dilution with 10% DMEM-FCS 10%, a concentration per well of about 1×10^5 cells. The cells were maintained under these conditions until confluent (about 15 days), the medium being replaced every 3 days. At this point, the test products dissolved in the medium were added to each sample and, after 20 minutes, 350 μl of IL-1β were added, to give a final concentration of 1 ng/ml. The stimulation lasted 48 hours at 37° C. (incubation in air/7% CO2). A nitrite assay was subsequently performed on the cell supernatant, as described by Green et al. [Anal. Biochem. 126, 131-138 (1982)], and of PGE2 by RIA assay. […]

SMILES: Cc1ccc(-c2cc(C(F)(F)F)nn2-c2ccc(S(N)(=O)=O)cc2)cc1 [Celecoxib, reference compound]
- potency in inhibiting production of PGE2 relative to the most active compounds of the invention: about ten times more powerful

— US20050197331A1, “Novel anti-inflammatory and analgesic heterocyclic amidines that inhibit nitrogen oxide (NO) production” (ROTTAPHARM SPA, priority 2004, published 2005)
